In PubChem BioAssay AID504834 (National Center for Advancing Translational Sciences (NCATS), 2011):
In all, about 320,000 compounds went through this assay and about 22,000 (6.9%) were called active. This list was built around the results that the source calls inconclusive (neither active nor inactive); the mix of calls is not that of the screen. The call rests on the fitted dose curve; in most records, active means well fitted inhibition curve with a large enough effect; inconclusive means small, poorly fitted or top-dose-only effect, or another doubt; inactive means no such curve, though single readings can be large or run the other way. Where the call is inconclusive, the potency comes from a doubtful curve fit.

Test: Primary qHTS for delayed death inhibitors of the malarial parasite plastid, 96 hour incubation
Conditions: P. falciparum luciferase reporter growth; series mostly up to 28.7 µM; activity change, negative = inhibition: at the top concentration
In short: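 Plates of compound plus infected erythrocytes (2% hematocrit, 0.05% parasitemia final) incubate 96 hours, 37 C, 5% CO2. Detection reagent added; reduced luminescence from the parasites' luciferase reporter flags inhibition.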
On the % scale 0 is the no-effect control and ±100 the full control effect; potency means the concentration at half of the fitted maximal effect.

| Structure (SMILES) | Potency | activity change, negative = inhibition |
| --- | --- | --- |
| CCC(=O)Nc1ccc(-c2cc(-c3ccccc3)nc(-c3ccc(NC(=O)CC)cc3)n2)cc1 | active: 13.1 µM |  |
| CC(C)CNC(=O)c1cc2nc3c(c(C(F)(F)F)n2n1)CCc1ccccc1-3 |  | inactive: 27.5% |
| Cc1nc2nc(C)c(NS(=O)(=O)c3ccc(CC(C)C)cc3)c(=O)n2[nH]1 |  | inactive: -3.04% |
| Cc1ccc(OCc2cc(C(=O)NC3CCc4ccccc43)no2)cn1 (stereo not given) | inconclusive: 18.5 µM [inhibitor, single point] |  |
| Cc1ccccc1-c1nc(CS(=O)(=O)CC(=O)NC2CCCCC2C)c(C)o1 (stereo not given) | inconclusive: 11.7 µM [inhibitor, single point] |  |
| COc1cccc(C(C(=O)NCC2CCCO2)N(CC2CCCO2)C(=O)CN2C(=O)c3ccccc3S2(=O)=O)c1 (stereo not given) | inconclusive: 13.1 µM [inhibitor, partial curve] |  |
| Nc1c(Br)cc(Br)cc1CNC1CCC(O)CC1 (stereo not given) | inconclusive: 0.338 µM [inhibitor, full curve, poor fit] |  |
| O=C(Nc1ccccc1N1CCCC1)c1cccc(-c2cc3ccccc3oc2=O)c1 | inconclusive: 18.5 µM [inhibitor, single point] |  |
| COc1ccccc1Nc1nc(Cl)nc(Nc2ccccc2OC)n1 |  | inactive: -26.3% |
| CCCC1(c2ccccc2)NC(=O)N(CC(=O)Nc2cc(OC)cc(OC)c2)C1=O (stereo not given) | inconclusive: 14.7 µM [inhibitor, partial curve, poor fit] |  |
| COc1ccc(O[C@H]2C=C[C@@H](c3ccccc3)O[C@@H]2CO/N=C/C[C@@H]2C=C[C@H](OC(C)=O)[C@@H](COC(C)=O)O2)cc1 | inconclusive: 13.1 µM [inhibitor, single point] |  |
| Cc1cc(NC(c2cccnc2)c2c(C)[nH]c3ccccc23)no1 (stereo not given) | inconclusive: 0.329 µM [inhibitor, partial curve, poor fit] |  |
| CCN(C(=O)CSc1ncccc1C(=O)OC(C)C)c1cccc(C)c1 | inconclusive: 13.1 µM [inhibitor, single point] |  |
| Cc1cccc(/C=N/N(CCO)C2=NS(=O)(=O)c3ccccc32)c1 | inconclusive: 0.0083 µM [inhibitor, full curve, poor fit] |  |
| CCCN1CCN(C(=O)c2cc3c(s2)-c2ccccc2S(=O)(=O)C3)CC1 |  | inactive: 33.7% |
| CC(=O)CSc1nnc(-c2ccc3c(c2)OCO3)o1 | inconclusive: 18.5 µM [inhibitor, single point] |  |
| Cc1ccc(-c2nnn(CC(=O)N(CCCO)C(C(=O)NC3CCCC3)c3ccc(Cl)cc3)n2)o1 (stereo not given) | inconclusive: 9.28 µM [inhibitor, partial curve, poor fit] |  |
| O=C(CN(c1ccccc1)S(=O)(=O)c1ccc(F)cc1)NC1CCCCCC1 | active: 2.33 µM |  |
| Cc1cc(F)ccc1NC(=O)C1CCN(C(=O)Nc2ccccc2)CC1 |  | inactive: -7.45% |
| COc1ccc(N=Nc2c(N)n[nH]c2N)cc1 |  | inactive: 112% |
| COc1ccc(N(CC(=O)NCc2ccc(Cl)cc2)S(=O)(=O)c2c(C)n[nH]c2C)cc1 | inconclusive: 11.7 µM [inhibitor, partial curve, poor fit] |  |
| CCCCCCCCC(=O)NCCOc1ccc(OC)cc1 | inconclusive: 18.5 µM [inhibitor, single point] |  |
| Fc1ccc(-c2csc(-c3cccnc3)n2)cc1F |  | inactive: 0% |

| Structure (SMILES) | Potency | activity change, negative = inhibition |
| --- | --- | --- |
| CC(C)c1ccc(/C=N/NC(=O)C(=O)NCCCN2CCOCC2)cc1 |  | inactive: 24% |
| O=C(CN1C(=O)c2ccccc2C1=O)N1CCN(c2ccccc2)CC1 |  | inactive: 25.8% |
| O=C(Nc1ccc2c(c1)OCO2)c1cc(-c2cccnc2)nc2ccccc12 | inconclusive: 11.7 µM [inhibitor, single point] |  |
| Cc1ccc(C(=O)N2CCCC(C(=O)c3cc(F)ccc3F)C2)s1 (stereo not given) | inconclusive: 16.5 µM [inhibitor, partial curve, poor fit] |  |
| Cc1ccc(CC2C(=O)N(c3cc(C)ccc3C)C(=O)C2C)cc1 (stereo not given) | inconclusive: 18.5 µM [inhibitor, single point] |  |
| Nc1ccccc1N=Cc1ccc(-c2cccc(Cl)c2)o1 | inconclusive: 5.86 µM [inhibitor, partial curve, poor fit] |  |
| COc1ccc(C(Sc2ccccc2)c2ccccc2)cc1OC (stereo not given) | inconclusive: 18.5 µM [inhibitor, single point] |  |
| O=C1COc2ccc(C(=O)COC(=O)c3cc(S(=O)(=O)NCc4ccccc4)ccc3O)cc2N1 | inconclusive: 0.0026 µM [inhibitor, full curve, poor fit] |  |
| Cc1sc2c(c1C)CN(C(C)(C)C)CN2C(=O)c1ccccc1 |  | inactive: 10.6% |
| COc1ccc(S(=O)(=O)N2CCOCC2)cc1NC(=O)CN1CCC(Cc2ccccc2)CC1 | active: 4.65 µM |  |
| Cn1c(Cc2nc(-c3cnccn3)no2)nnc1SCC(=O)Nc1ccccc1 | inconclusive: 2.62 µM [inhibitor, partial curve, poor fit] |  |
| CCN1CCCC1CNC(=O)Cn1nc(C)n2c(cc3cc(C)ccc32)c1=O (stereo not given) | inconclusive: 18.5 µM [inhibitor, single point] |  |
| CCOc1ccccc1CNC(=O)c1nn(CC)cc1[N+](=O)[O-] | inconclusive: 10.4 µM [inhibitor, single point] |  |
| O=C(O)c1c(Cl)cccc1Cl |  | inactive: -7.5% |
| FC(F)(F)c1cccnc1Oc1ccc(C2=NCCS2)cc1 | active: 2.62 µM |  |
| Cn1cc([N+](=O)[O-])cc1-c1nc2ccccc2n1C | inconclusive: 4.15 µM [inhibitor, single point] |  |
| COc1cc(SC)ccc1C(=O)NCCc1c[nH]c2ccccc12 |  | inactive: -14.8% |
| O=C(NNC1CC(=O)N(c2ccc(Br)cc2)C1=O)c1cccs1 (stereo not given) |  | inactive: 58.9% |
| CC(C)OCCCNC(=O)C1CCN(S(=O)(=O)c2ccc3nc4c(c(C(=O)O)c3c2)CCCCC4)CC1 | inconclusive: 0.0037 µM [inhibitor, full curve, poor fit] |  |
| Cc1ccc(S(=O)(=O)N(Cc2cc3cc4c(cc3[nH]c2=O)OCCO4)CC2CCCO2)cc1 (stereo not given) |  | inactive: -20.3% |
| CCc1cccc(CC)c1NC(=S)NCc1nc2ccccc2[nH]1 |  | inactive: -4.96% |
| Cc1ccc(OCCCNCCO)c(Br)c1 | inconclusive: 11.7 µM [inhibitor, single point] |  |

Quoted from the listing:
COc1ccc(N(CC(=O)NCc2ccc(Cl)cc2)S(=O)(=O)c2c(C)n[nH]c2C)cc1 – Potency: inconclusive: 11.7 µM [inhibitor, partial curve, poor fit]
CC(C)OCCCNC(=O)C1CCN(S(=O)(=O)c2ccc3nc4c(c(C(=O)O)c3c2)CCCCC4)CC1 – Potency: inconclusive: 0.0037 µM [inhibitor, full curve, poor fit]
